Measurements reported in the supplement of paper PMC10849652.
The other results are listed elsewhere or left out.

The chains behind the UniProt entries cited, without tags or fusion partners. Where a name states a change or a piece, a line headed by the entry shows the natural chain unless it says otherwise.
UniProt Q9H269: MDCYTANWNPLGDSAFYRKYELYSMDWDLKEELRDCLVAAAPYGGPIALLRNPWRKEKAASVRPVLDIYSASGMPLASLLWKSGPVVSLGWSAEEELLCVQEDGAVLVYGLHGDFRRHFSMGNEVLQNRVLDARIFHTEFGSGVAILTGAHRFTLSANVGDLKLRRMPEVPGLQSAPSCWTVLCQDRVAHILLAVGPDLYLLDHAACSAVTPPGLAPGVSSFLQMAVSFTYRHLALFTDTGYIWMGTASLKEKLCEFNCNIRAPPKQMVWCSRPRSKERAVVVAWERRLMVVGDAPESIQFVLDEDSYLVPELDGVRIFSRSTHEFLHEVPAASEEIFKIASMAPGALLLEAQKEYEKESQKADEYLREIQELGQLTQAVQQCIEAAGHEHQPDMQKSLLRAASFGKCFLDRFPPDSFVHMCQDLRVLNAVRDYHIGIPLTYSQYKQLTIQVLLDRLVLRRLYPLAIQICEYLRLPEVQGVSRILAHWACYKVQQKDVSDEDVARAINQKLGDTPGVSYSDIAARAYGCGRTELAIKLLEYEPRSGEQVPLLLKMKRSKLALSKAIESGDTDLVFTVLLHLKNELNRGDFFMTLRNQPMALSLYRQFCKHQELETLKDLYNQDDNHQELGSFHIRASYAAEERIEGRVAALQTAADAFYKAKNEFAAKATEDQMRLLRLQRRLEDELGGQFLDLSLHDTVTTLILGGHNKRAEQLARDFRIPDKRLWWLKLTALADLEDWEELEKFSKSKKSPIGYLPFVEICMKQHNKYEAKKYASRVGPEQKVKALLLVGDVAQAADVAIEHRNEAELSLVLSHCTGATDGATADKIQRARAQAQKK
UniProt Q9Y484: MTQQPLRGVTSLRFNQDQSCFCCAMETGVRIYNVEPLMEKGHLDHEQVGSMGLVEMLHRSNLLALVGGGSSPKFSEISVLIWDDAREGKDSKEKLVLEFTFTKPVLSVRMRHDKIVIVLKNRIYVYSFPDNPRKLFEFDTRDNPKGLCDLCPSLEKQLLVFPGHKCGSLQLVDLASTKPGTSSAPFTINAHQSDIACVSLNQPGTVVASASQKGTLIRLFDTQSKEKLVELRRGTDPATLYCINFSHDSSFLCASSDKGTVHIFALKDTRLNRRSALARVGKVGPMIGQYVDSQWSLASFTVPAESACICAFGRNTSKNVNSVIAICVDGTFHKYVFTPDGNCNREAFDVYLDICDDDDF
UniProt A4D1P6: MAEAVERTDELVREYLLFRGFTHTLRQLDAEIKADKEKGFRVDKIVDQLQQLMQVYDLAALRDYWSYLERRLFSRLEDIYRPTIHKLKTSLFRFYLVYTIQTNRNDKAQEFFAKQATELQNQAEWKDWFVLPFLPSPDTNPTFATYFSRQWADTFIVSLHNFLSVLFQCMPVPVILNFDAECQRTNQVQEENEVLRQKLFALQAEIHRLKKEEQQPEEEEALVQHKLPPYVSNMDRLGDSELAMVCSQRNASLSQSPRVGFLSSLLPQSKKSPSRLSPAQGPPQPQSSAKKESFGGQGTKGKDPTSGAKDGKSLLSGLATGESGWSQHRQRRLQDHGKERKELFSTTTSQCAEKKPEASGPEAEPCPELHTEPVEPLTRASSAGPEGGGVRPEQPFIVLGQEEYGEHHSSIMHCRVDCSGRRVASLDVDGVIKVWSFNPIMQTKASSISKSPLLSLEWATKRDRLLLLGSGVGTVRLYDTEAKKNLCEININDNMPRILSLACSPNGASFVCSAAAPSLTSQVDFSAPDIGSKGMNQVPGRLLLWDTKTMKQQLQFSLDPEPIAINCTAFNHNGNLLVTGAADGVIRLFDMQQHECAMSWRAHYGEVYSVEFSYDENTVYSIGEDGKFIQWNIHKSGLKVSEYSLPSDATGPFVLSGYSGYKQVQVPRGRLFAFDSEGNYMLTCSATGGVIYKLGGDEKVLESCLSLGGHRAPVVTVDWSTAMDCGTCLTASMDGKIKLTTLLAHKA
UniProt Q9HD64: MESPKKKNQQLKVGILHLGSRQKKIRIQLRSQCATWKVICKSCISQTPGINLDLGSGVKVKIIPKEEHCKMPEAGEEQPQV
UniProt Q6AWC2, whole entry, looked up: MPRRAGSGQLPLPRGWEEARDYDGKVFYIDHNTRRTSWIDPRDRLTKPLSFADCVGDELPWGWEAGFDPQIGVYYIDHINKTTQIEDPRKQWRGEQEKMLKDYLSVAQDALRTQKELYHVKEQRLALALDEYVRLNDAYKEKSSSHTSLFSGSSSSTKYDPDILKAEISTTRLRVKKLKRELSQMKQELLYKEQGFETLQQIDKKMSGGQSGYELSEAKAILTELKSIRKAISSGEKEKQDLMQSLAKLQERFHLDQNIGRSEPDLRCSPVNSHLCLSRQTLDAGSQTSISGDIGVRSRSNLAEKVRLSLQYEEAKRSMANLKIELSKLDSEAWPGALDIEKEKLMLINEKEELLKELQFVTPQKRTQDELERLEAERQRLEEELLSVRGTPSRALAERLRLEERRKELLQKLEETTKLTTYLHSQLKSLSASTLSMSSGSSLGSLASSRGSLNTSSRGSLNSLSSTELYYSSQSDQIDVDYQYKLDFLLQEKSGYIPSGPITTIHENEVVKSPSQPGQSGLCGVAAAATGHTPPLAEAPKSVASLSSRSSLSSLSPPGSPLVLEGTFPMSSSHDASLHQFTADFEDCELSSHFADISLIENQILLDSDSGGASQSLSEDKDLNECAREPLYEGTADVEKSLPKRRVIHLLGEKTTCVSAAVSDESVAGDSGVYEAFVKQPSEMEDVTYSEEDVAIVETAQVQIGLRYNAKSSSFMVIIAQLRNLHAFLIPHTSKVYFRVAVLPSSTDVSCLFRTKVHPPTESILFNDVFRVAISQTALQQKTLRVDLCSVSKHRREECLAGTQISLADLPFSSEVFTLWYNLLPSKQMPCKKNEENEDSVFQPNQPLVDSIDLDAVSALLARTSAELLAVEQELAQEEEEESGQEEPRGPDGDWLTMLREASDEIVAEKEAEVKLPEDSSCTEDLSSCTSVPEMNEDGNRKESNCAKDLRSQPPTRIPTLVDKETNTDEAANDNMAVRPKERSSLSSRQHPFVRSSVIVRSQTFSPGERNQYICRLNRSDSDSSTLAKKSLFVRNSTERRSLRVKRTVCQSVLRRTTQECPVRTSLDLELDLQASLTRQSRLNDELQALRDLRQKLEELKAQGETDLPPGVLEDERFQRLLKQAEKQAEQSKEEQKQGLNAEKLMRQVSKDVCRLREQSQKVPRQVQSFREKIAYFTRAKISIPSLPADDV
UniProt Q641Q2, whole entry, looked up: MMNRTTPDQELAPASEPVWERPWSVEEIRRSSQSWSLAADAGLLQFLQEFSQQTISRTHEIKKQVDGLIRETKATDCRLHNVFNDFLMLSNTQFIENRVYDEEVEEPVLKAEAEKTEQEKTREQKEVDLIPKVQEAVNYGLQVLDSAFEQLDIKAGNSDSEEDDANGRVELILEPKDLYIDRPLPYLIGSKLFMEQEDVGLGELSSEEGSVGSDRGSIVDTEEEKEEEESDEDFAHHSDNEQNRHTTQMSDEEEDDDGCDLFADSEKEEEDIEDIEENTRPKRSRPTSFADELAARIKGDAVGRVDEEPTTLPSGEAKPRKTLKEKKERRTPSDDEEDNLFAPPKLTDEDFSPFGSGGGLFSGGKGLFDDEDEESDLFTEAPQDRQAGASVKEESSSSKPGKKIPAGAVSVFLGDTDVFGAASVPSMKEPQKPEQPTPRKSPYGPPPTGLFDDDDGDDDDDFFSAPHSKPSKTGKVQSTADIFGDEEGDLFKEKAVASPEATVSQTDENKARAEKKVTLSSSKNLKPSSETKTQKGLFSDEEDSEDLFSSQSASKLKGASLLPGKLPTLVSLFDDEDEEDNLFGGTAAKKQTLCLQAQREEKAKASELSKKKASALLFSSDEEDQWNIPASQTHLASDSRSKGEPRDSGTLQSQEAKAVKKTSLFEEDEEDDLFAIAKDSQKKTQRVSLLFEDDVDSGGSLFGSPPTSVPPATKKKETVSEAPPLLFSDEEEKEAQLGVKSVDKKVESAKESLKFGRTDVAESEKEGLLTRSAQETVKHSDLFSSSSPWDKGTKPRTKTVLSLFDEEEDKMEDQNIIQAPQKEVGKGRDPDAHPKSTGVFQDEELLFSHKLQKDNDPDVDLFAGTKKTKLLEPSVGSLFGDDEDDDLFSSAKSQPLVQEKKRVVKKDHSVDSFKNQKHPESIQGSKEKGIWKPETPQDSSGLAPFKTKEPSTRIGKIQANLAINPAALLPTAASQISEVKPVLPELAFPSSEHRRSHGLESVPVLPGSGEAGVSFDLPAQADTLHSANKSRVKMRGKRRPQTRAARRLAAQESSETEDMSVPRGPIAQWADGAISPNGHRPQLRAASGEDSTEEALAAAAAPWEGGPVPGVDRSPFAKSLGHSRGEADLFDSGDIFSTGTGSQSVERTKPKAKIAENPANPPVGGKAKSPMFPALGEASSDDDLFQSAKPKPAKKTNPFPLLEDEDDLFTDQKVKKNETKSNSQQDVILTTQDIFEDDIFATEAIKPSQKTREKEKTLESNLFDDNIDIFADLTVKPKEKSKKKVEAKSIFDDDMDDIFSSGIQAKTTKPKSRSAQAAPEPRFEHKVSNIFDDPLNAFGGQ
UniProt Q562E7: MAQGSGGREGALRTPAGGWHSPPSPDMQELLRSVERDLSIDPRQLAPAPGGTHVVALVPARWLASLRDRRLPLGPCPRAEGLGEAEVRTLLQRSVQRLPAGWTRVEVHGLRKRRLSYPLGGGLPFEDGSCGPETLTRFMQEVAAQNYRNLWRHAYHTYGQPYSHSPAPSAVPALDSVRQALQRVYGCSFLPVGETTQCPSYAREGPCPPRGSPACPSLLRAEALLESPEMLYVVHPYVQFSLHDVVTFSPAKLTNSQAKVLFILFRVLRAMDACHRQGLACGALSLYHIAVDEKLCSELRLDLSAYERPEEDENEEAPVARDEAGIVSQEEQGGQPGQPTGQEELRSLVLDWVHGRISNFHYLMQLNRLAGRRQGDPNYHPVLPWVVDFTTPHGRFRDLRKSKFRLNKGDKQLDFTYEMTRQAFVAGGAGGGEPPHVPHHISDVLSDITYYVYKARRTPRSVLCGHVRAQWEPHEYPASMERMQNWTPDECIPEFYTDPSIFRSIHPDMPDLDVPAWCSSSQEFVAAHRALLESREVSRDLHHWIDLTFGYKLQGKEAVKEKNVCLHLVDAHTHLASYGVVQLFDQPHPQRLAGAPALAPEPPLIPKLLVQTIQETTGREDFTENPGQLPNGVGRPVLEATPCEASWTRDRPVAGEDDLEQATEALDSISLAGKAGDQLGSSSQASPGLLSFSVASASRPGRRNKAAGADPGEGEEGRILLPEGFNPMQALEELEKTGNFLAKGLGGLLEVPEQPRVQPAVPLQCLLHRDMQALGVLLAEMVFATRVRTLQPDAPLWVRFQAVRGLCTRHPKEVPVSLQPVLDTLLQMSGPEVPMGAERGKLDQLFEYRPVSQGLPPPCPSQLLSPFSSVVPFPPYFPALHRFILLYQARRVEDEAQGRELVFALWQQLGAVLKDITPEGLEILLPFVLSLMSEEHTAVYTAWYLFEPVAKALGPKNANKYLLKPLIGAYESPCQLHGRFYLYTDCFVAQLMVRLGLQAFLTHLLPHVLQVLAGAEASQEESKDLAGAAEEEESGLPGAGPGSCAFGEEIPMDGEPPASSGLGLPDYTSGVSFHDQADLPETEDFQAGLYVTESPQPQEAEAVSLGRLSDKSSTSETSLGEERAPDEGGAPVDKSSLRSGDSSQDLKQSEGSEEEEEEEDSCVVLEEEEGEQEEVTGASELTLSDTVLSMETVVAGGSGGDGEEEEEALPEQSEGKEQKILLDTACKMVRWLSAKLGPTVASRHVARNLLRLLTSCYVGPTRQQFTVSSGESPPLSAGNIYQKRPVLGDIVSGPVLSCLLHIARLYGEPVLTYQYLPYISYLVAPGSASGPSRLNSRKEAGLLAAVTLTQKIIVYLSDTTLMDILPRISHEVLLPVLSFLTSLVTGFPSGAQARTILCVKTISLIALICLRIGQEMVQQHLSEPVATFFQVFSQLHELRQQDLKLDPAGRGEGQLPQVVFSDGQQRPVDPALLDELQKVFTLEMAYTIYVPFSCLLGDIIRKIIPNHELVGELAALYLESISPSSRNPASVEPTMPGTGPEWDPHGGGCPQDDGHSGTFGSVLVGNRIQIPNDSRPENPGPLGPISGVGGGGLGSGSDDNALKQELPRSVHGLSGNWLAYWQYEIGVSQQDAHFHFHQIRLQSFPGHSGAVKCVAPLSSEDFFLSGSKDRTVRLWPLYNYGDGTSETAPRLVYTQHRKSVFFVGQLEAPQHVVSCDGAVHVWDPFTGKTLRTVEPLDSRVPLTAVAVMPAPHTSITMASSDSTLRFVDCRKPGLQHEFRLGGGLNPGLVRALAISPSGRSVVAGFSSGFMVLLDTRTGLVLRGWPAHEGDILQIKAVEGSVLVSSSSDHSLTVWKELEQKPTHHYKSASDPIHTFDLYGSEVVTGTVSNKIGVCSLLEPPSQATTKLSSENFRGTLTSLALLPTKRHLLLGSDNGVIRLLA

Legend:
Test in all cases: log2 fold change, soluble protein after heating vs DMSO (PISA); higher = thermal stabilisation; K562 lysate, 10 uM; active = over 0.2 and 3.5 SD of the protein, either way, in both replicates (recomputed)
[1] = compound: C1=CC=C(C=C1)[C@H](COC2=CC3=C(C=C2)NC(=O)N3)NC(=O)C4=CC=CN(C4=O)CC5=CC(=C(C=C5)F)F
Outline: (§1)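 Soluble protein was defined as the supernatant remaining after 21,000xg for 90 min, following pooling of heated aliquots and adjustment to 0.5% NP-40 at 4°C. Before that, crude K562 extract at 1 mg/mL protein in PBS pH 7.4 with 1 mM MgCl2 was treated with 10 μM compound for 30 min and heated for 3 min across 48°C-58°C. Quantification used TMTpro 16plex LC-MS/MS with channel sums equalised, and values are log-two fold changes in thermal stability relative to solvent controls from duplicates.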

[2] = compound: CC1=C(SC2=C1C(=N[C@H](C3=NN=C(N32)C)CC(=O)N)C4=CC=C(C=C4)Cl)C
Outline: as §1

[3] = compound: CC1=C2C(=CC=C1)N=C(N(C2=O)C3=CC=CC=C3C)CN4C=NC5=C(N=CN=C54)N
Outline: as §1

[4] = compound: Cc1sc2c(c1C)C(c1ccc(Cl)cc1)=N[C@@H](CC(=O)OC(C)(C)C)c1nnc(C)n1-2
Outline: as §1

[5] = compound: c1ccc([C@@H]2C[C@H]2NC2CCNCC2)cc1
Outline: as §1

Measured: log2 fold change

VPS16 (UniProt Q9H269)
inactive: [1] -0.035 | [2] -0.009 | [3] 0.041 | [4] 0.011 | [5] 0.005

WRAP53 (UniProt Q9BUR4)
inactive: [1] 0.063 | [2] 0.046 | [3] -0.009 | [4] -0.092 | [5] -0.038

WDR45 isoform 2 (UniProt Q9Y484)
inactive: [1] -0.024 | [2] 0.061 | [3] 0.073 | [4] -0.018 | [5] -0.014

WDR33 (UniProt Q9C0J8)
inactive: [1] -0.09 | [2] 0.032 | [3] -0.032 | [4] 0.009 | [5] 0.001

WDR1 (UniProt O75083)
inactive: [1] -0.011 | [2] 0.015 | [3] -0.011 | [4] 0.046 | [5] 0.073

WARS2 (UniProt Q9UGM6)
inactive: [1] 0.01 | [2] 0.026 | [3] 0.018 | [4] 0.02 | [5] 0.039

WDSUB1 (UniProt Q8N9V3)
inactive: [1] 0.037 | [2] -0.005 | [3] -0.026 | [4] 0 | [5] -0.064

VKORC1 (UniProt Q9BQB6)
inactive: [1] -0.02 | [2] 0.134 | [3] 0.01 | [4] 0.029 | [5] 0.005

VPS11 (UniProt Q9H270)
inactive: [1] -0.018 | [2] -0.001 | [3] 0.044 | [4] 0.048 | [5] 0.029

XPA (UniProt P23025)
inactive: [1] 0.01 | [2] -0.016 | [3] 0.042 | [4] -0.022 | [5] -0.13

WDR18 (UniProt Q9BV38)
inactive: [1] 0.014 | [2] 0.043 | [3] -0.003 | [4] 0.002 | [5] 0.012

WIZ isoform 3 (UniProt O95785)
inactive: [1] 0.005 | [2] 0.001 | [3] -0.023 | [4] -0.008 | [5] -0.004

WDR91 (UniProt A4D1P6)
inactive: [1] -0.009 | [2] 0.027 | [3] 0.009 | [4] -0.02 | [5] 0.026

WEE1 (UniProt P30291)
inactive: [1] -0.002 | [2] -0.099 | [3] -0.047 | [4] 0.03

VLDLR (UniProt P98155)
inactive: [1] 0.017 | [2] 0.037

WRAP73 (UniProt Q9P2S5)
inactive: [1] 0.018 | [2] -0.034 | [3] -0.052 | [4] -0.025 | [5] 0.017

VPS50 (UniProt Q96JG6)
inactive: [1] -0.04 | [2] 0.028 | [3] 0.018 | [4] 0.001 | [5] 0.05

XAB2 (UniProt Q9HCS7)
inactive: [1] -0.009 | [2] 0.05 | [3] 0 | [4] -0.018 | [5] 0.035

WBP11 (UniProt Q9Y2W2)
inactive: [1] 0.043 | [2] 0.024 | [3] 0.013 | [4] 0.005 | [5] -0.041

WASL (UniProt O00401)
inactive: [1] -0.031 | [2] 0.036 | [3] 0.054 | [4] 0.073 | [5] 0.037

XAGE1A (UniProt Q9HD64)
inactive: [1] 0.1 | [2] 0.008 | [3] 0.105

WDR43 (UniProt Q15061)
inactive: [1] 0.063 | [2] -0.006 | [3] 0.008 | [4] 0.018 | [5] -0.035

WDR89 (UniProt Q96FK6)
inactive: [1] -0.001 | [2] 0.134 | [3] 0.097 | [4] 0.048 | [5] -0.006

VWA5A (UniProt O00534)
inactive: [1] 0.059 | [2] 0.022 | [3] 0.023 | [4] 0.015 | [5] -0.085

WIPI2 (UniProt Q9Y4P8)
inactive: [1] 0.03 | [2] -0.033 | [3] -0.008 | [4] -0.055 | [5] -0.096

WARS1 (UniProt G3V277)
inactive: [1] 0.071 | [2] -0.143 | [3] 0

WDR59 (UniProt Q6PJI9)
inactive: [1] 0.002 | [2] -0.008 | [3] 0.032 | [4] 0.023 | [5] 0.016

WASH6P (UniProt Q9NQA3)
inactive: [1] 0.037 | [2] 0.094

WDR11 (UniProt Q9BZH6)
inactive: [1] -0.13 | [2] 0.073 | [3] 0.033 | [4] -0.051 | [5] -0.157

Fetched one by one from above, 4 records:
WDR11 (UniProt Q9BZH6)
inactive: [1] -0.13 | [2] 0.073 | [3] 0.033 | [4] -0.051 | [5] -0.157

WIPI2 (UniProt Q9Y4P8)
inactive: [1] 0.03 | [2] -0.033 | [3] -0.008 | [4] -0.055 | [5] -0.096

VWA5A (UniProt O00534)
inactive: [1] 0.059 | [2] 0.022 | [3] 0.023 | [4] 0.015 | [5] -0.085

WDR59 (UniProt Q6PJI9)
inactive: [1] 0.002 | [2] -0.008 | [3] 0.032 | [4] 0.023 | [5] 0.016

(cont.)

WDR83 (UniProt Q9BRX9)
inactive: [1] 0.044 | [2] 0.082 | [3] -0.045 | [4] 0.055

WDR12 (UniProt Q9GZL7)
inactive: [1] 0.011 | [2] 0.013 | [3] 0.009 | [4] -0.009 | [5] -0.033

WDR77 (UniProt Q9BQA1)
inactive: [1] 0.02 | [2] 0.012 | [3] 0.012 | [4] 0.006 | [5] 0.006

VWA8 (UniProt A3KMH1)
inactive: [1] -0.036 | [2] 0.069 | [3] -0.162 | [4] -0.013 | [5] 0.199

WWC2 isoform 6 (UniProt Q6AWC2)
inactive: [1] -0.112 | [2] 0.04 | [3] 0.012 | [4] -0.016 | [5] -0.03

WARS1 (UniProt G3V5U1)
inactive: [1] 0.198 | [2] -0.027

WASHC2A (UniProt Q641Q2)
inactive: [1] 0.014 | [2] -0.008 | [3] -0.004 | [4] -0.03 | [5] -0.037

WWP2 (UniProt O00308)
inactive: [1] 0.009 | [2] -0.111 | [3] 0.042 | [4] -0.035 | [5] -0.035

VWDE (UniProt Q8N2E2)
inactive: [1] 0.08 | [2] -0.028 | [3] 0.079 | [4] 0.048 | [5] 0.015

XIRP2 isoform 8 (UniProt A4UGR9)
inactive: [1] 0.049 | [2] -0.034

VTN (UniProt P04004)
inactive: [1] -0.009 | [2] -0.039 | [3] -0.094 | [4] -0.053 | [5] -0.222

WDR81 (UniProt Q562E7)
inactive: [1] -0.01 | [2] 0.02 | [3] 0.018 | [4] 0.013 | [5] 0.049

WAPL isoform 3 (UniProt Q7Z5K2)
inactive: [1] 0.014 | [2] 0.013 | [3] 0.025 | [4] -0.018 | [5] -0.048

WDHD1 (UniProt O75717)
inactive: [1] 0.018 | [2] -0.011 | [3] -0.017 | [4] 0.011 | [5] 0.067

VPS33A (UniProt Q96AX1)
inactive: [1] 0 | [2] 0.017 | [3] 0.014 | [4] -0.013 | [5] -0.01

WDR92 (UniProt Q96MX6)
inactive: [1] -0.051 | [2] -0.034 | [3] -0.007 | [4] 0.045 | [5] -0.047

VPS41 (UniProt P49754)
inactive: [1] -0.046 | [2] 0.005 | [3] -0.016 | [4] 0.067 | [5] 0.13

VPS4A (UniProt Q9UN37)
inactive: [1] -0.056 | [2] 0.034 | [3] -0.102 | [4] 0.017 | [5] 0.074

WBP4 (UniProt O75554)
inactive: [1] 0.002 | [2] -0.001 | [3] -0.035 | [4] -0.054 | [5] 0

VPS37A (UniProt Q8NEZ2)
inactive: [1] -0.066 | [2] 0.072 | [3] 0 | [4] 0.017 | [5] 0.089

WASHC3 (UniProt Q9Y3C0)
inactive: [1] 0.05 | [2] 0.089 | [3] 0.048 | [4] -0.018 | [5] -0.052

VPS29 isoform 2 (UniProt Q9UBQ0)
inactive: [1] 0.009 | [2] -0.097 | [3] -0.019 | [4] -0.005 | [5] -0.051

VPS35L (UniProt Q7Z3J2)
inactive: [1] 0.013 | [2] 0.004 | [3] 0.044 | [4] -0.032 | [5] 0.013

VPS26C (UniProt O14972)
inactive: [1] 0.014 | [2] -0.045 | [3] 0.013 | [4] -0.076 | [5] -0.063

WRB (UniProt O00258)
inactive: [1] 0.018 | [2] -0.021 | [3] -0.029 | [4] 0 | [5] -0.191

WDR41 (UniProt Q9HAD4)
inactive: [1] 0.043 | [2] 0.013 | [3] 0.02 | [4] -0.047 | [5] -0.012

VPS13D (UniProt Q5THJ4)
inactive: [1] -0.093 | [2] -0.045 | [3] -0.054 | [4] -0.082 | [5] 0.052
